The source of these data is patent US5302698.

Series [1] has as its target T1, lambda2 cDNA-encoded AFP enhancer-binding protein (Homo sapiens) (UniProt Q15911).
T1 sequence: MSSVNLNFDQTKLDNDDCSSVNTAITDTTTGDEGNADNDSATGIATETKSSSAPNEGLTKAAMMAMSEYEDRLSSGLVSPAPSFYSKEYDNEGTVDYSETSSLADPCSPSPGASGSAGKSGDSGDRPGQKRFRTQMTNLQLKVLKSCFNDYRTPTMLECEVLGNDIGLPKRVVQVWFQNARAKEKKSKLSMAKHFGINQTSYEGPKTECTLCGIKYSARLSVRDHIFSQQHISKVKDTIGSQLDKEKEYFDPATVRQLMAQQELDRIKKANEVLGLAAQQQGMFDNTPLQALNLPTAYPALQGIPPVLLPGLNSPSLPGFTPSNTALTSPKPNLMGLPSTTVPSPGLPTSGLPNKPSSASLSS
Briefly: EMSA. Particulars: two shifted bands (a and b) with lambda2 lysogen extract, none with lambda gt11 control extract; probe was SmaI/HincII fragment of pAFE(HgiAI/BstNI)1; protein in a lysate after overexpression; label: 32P 5' end. For orientation: In EMSA bound probe runs differently from free probe, usually more slowly.

The target in series [2] is T1, lambda2 cDNA-encoded AFP enhancer-binding protein (Homo sapiens). In words: footprint. Particulars: DNase I protection of 15 bp containing TTAATAATTA; 10 mM Tris-HCl pH 7.5, 50 mM NaCl, 2.5 mM MgCl2, poly(dI-dC), room temperature; protein in a lysate after overexpression; label: 32P 5' end.

Results from cells or extracts need not show a direct contact. Where a protein sequence is shown, tags need not be part of it.

Consider “AGGGAGCCTGATTAATAATTACACTAAGTCAA (double strand) [AFP enhancer region, footprinted segment]”, for which the binding result in series [1] and in series [2] was “binds” throughout.
